This is one part of the list. Further columns of the screen follow, without active or inactive calls. Compounds called inactive in the main read-out are mostly missing here. The note in brackets gives the kind of curve behind each potency; many fits are weak.
Assay: qHTS Assay to Find Inhibitors of Chronic Active B-Cell Receptor Signaling
Settings: ABC-DLBCL IkBa-CBG/CBR reporter, luminescence ratio (green luciferase fused to IkBa over red control in TMD8 lymphoma cells), 4 h
How it was run: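 TMD8 ABC-DLBCL cells carrying doxycycline-inducible green luciferase fused to IkappaBalpha plus unfused red luciferase were exposed to compounds (up to 46 uM) for 4 hrs at 37C. Activity came from the overlap-corrected green/red luminescence ratio.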

[1] = measured here: CBR red luminescence, cell number
[2] = measured here: IkBa-CBG green luminescence

| Compound | AC50 [1] | AC50 [2] |
| --- | --- | --- |
| CS(=O)(=O)c1ccc(C(=O)Nc2cccc(-c3nc4ccccc4[nH]3)c2)cc1 | 35.5 µM [falling, single point] | – |
| CCOC(=O)Cc1cc(=O)[nH]c(Nc2nc3ccccc3o2)n1 | 35.5 µM [falling, single point] | – |
| CC(C)CCNC(=O)NC(=O)CSc1nnc(-c2ccccc2F)n1N | 4.61 µM [falling, single point] | 4.61 µM [rising, partial curve, poor fit] |
| CN1CCCN(S(=O)(=O)c2ccccc2)c2nc3ccccc3nc21 | 29.1 µM [falling, single point] | – |
| Cc1ccc(NC(=O)Nc2cccc([N+](=O)[O-])c2)nc1 | 2 µM [rising, full curve, poor fit] | – |
| O=C(N/N=C/c1coc2ccccc2c1=O)c1cc(O)cc(O)c1 | 10 µM [falling, partial curve, poor fit] | – |
| Cc1noc(C)c1COc1ccccc1C(=O)NCCc1ccccc1 | 6.51 µM [rising, single point] | – |
| O=C(c1nnsc1S(=O)(=O)c1ccc(Cl)cc1)N1CCOCC1 | 7.08 µM [falling, full curve] | 7.94 µM [rising, partial curve, poor fit] |
| COc1ccc(Cn2nnnc2C(CC(C)C)N2CCN(c3ccccc3)CC2)cc1 (centres undefined) | 4.47 µM [falling, full curve] | – |
| COc1ccc2c(c1)c(C(=O)OCCN(C)C)c(C)n2C | 7.31 µM [rising, partial curve, poor fit] | – |
| Cc1cccc2sc(NC(=O)CSCc3ccccc3)nc12 | 11.6 µM [falling, partial curve, poor fit] | – |
| CNC(=O)c1ccsc1NC(=O)c1ccc(S(=O)(=O)N2CCc3ccccc32)cc1 | 32.6 µM [falling, partial curve, poor fit] | 25.9 µM [rising, partial curve, poor fit] |
| COc1ccc(S(=O)(=O)CC(=O)c2cc3cc(Br)ccc3oc2=O)cc1 | 28.2 µM [falling, single point] | – |
| COc1ccc(NC(=O)c2ccccc2C)cc1 | 10 µM [falling, partial curve] | – |
| Cc1cc(NC(=O)COC(=O)c2ccccc2NCCO)no1 | 16.4 µM [falling, single point] | – |
| Cc1noc(C)c1COC(=O)c1ccc(F)c(S(=O)(=O)N2CCCCC2)c1 | 10 µM [falling, partial curve] | – |
| COc1ccc(-c2onc3ccc(Cl)cc23)cc1 | 0.259 µM [rising, full curve, poor fit] | – |
| O=C1CN(C(=O)c2ccc(Br)o2)C(c2ccc(F)cc2)c2cc(F)ccc2N1 (centres undefined) | 20.6 µM [falling, single point] | – |
| O=C(Nc1nc(=O)[nH]s1)c1ccccc1 | 35.5 µM [falling, single point] | – |
| O=C(Nc1ccc2c(c1)COC2=O)c1ccc(Cl)c(Cl)c1 | 0.112 µM [rising, full curve, poor fit] | – |
| COc1ccc(S(=O)(=O)N2CCOCC2)c(C)c1C | 20.6 µM [rising, partial curve, poor fit] | 8.2 µM [falling, partial curve, poor fit] |

Gathered by group, those above containing a Cl atom.

| Compound | AC50 [1] | AC50 [2] |
| --- | --- | --- |
| O=C(c1nnsc1S(=O)(=O)c1ccc(Cl)cc1)N1CCOCC1 | 7.08 µM [falling, full curve] | 7.94 µM [rising, partial curve, poor fit] |
| COc1ccc(-c2onc3ccc(Cl)cc23)cc1 | 0.259 µM [rising, full curve, poor fit] | – |
| O=C(Nc1ccc2c(c1)COC2=O)c1ccc(Cl)c(Cl)c1 | 0.112 µM [rising, full curve, poor fit] | – |

(list continues)

| Compound | AC50 [1] | AC50 [2] |
| --- | --- | --- |
| Cc1ccc(N(CC(=O)N/N=C/c2ccc(OC3CSC3)cc2)S(=O)(=O)c2ccccc2)c(C)c1 | 18.4 µM [rising, partial curve, poor fit] | – |
| OCCN1CCN(c2nc(-c3ccccc3)nc3c2oc2ccccc23)CC1 | 35.5 µM [falling, single point] | – |
| O=C(Nc1ccc(Br)cn1)c1ccc2ccccc2c1 | 10 µM [falling, partial curve, poor fit] | – |
| CSc1nc(C)c(CCOC(=O)c2ccccc2)c(=O)[nH]1 | 1.41 µM [rising, full curve, poor fit] | – |
| CCOc1ccc2nc(-c3ccccc3)[nH]c2c1 | 10 µM [falling, partial curve] | – |
| COC(=O)c1ccc(COc2ccccc2/C=N/NS(=O)(=O)c2ccccc2)cc1 | – | 35.5 µM [falling, single point] |
| Cn1c(CCN2CCCCC2)nc2cc(NS(=O)(=O)c3ccc(F)cc3)ccc21 | 22.4 µM [falling, single point] | – |
| Cc1cccc(C(=O)Nc2oc(-c3ccccc3)cc2C#N)c1 | 15.8 µM [rising, partial curve, poor fit] | – |
| CC(=O)c1c(C)[nH]c(=S)c(C#N)c1-c1ccc(Cl)cc1 | 5.01 µM [rising, partial curve, poor fit] | – |
| Cc1nnc(SCC(=O)NC(C)(C)C)n1CCc1ccccc1 | 13 µM [rising, partial curve, poor fit] | – |
| CCN(CC)C(=O)c1sc2nc(N3CCOCC3)c3c(c2c1N)CCCC3 | 29.1 µM [falling, single point] | – |
| O=C(CC(Nc1cccc(Cl)c1Cl)C(=O)OCC(=O)c1cccs1)c1ccccc1 (centres undefined) | 1.46 µM [rising, partial curve] | – |
| CC1=NN(c2ccccc2)C(=O)/C1=C\N(O)c1ccccc1 | 15.8 µM [falling, single point] | – |
| CCCC(=O)NC(=S)Nc1ccc(Cl)cn1 | 35.5 µM [falling, single point] | 35.5 µM [falling, single point] |
| O=C(OCc1c(-c2ccccc2)ncc2ccccc12)c1ccccc1C(F)(F)F | 29.1 µM [falling, single point] | – |
| CC1CCCN(c2nc(NCc3ccco3)nc(N)c2[N+](=O)[O-])C1 (centres undefined) | 5.8 µM [rising, single point] | – |
| Cc1cc(C)c(OCCCCCn2ccnc2)c(C)c1 | 35.5 µM [rising, single point] | – |
| Cc1ccc(NC(=S)N(CCCN2CCOCC2)Cc2ccco2)cc1C | 35.5 µM [falling, single point] | – |
| O=C(NCCCN1CCCC1)c1cc2c(Cl)nc3ccccc3c2s1 | 35.5 µM [falling, single point] | – |
| C[C@H]1CN([C@@H](C)CO)C(=O)Cc2cc(NC(=O)C3CC3)ccc2O[C@H]1CN(C)Cc1ccc(Oc2ccccc2)cc1 | 23.1 µM [falling, single point] | – |
| COc1ccccc1OCC(=O)Nc1sc2c(c1C(N)=O)CCC2 | 5.8 µM [falling, partial curve, poor fit] | – |

| Compound | AC50 [1] | AC50 [2] |
| --- | --- | --- |
| COc1cc(/C=C2\SC(=O)N(CC(=O)Nc3ccc(C)cc3)C2=O)cc(Cl)c1OCC(=O)O | 12.6 µM [rising, partial curve, poor fit] | – |
| O=C(c1ccccc1)N1CCN(c2ncnc3sc4c(c23)CCC4)CC1 | 29.1 µM [falling, single point] | – |
| O=C(c1ccccc1)c1ccc2ccccc2n1 | 6.51 µM [rising, partial curve] | – |
| COc1ccc(C(=O)/C=C/c2ccc(-c3ccccc3)cc2)cc1CSCC(=O)O | 8.91 µM [falling, partial curve] | – |
| c1ccc(Cn2nc(-c3ccccc3)nc2-c2ccccc2)cc1 | 13 µM [rising, partial curve, poor fit] | – |
| CCCN(CCC)CCCNc1ccc(C(=O)Nc2cccc(OC)c2)cc1[N+](=O)[O-] | 3.55 µM [falling, full curve] | – |
| COc1ccccc1C(c1nnnn1C(C)(C)C)N1CCCCCC1 (centres undefined) | 0.501 µM [falling, partial curve, poor fit] | – |
| COc1cccc(OCCn2c(C)c(/C=N/n3cnnc3)c3ccccc32)c1 | 6.31 µM [rising, single point] | – |
| O=C(O)CCCN=Cc1c(O)c2ccccc2oc1=O | 8.91 µM [falling, partial curve, poor fit] | – |
| O=C1N=c2ccccc2=C1c1c(O)n(-c2cccc(F)c2)[nH]c1=O | 20.6 µM [falling, partial curve] | – |
| N#C/C(=C/c1ccc(O)c(O)c1)C(=O)NCc1ccc(Cl)cc1 | 2.24 µM [falling, partial curve, poor fit] | – |
| COc1ccc(CN(C)C(=O)C(Cc2ccccc2)NC(=O)c2ccccc2)c(OC)c1 (centres undefined) | 4.61 µM [falling, full curve, poor fit] | – |
| COC(=O)Cc1[nH]nc2c1C1(CCSCC1)C(C#N)=C(N)O2 | 5.8 µM [falling, single point] | – |
| CC(C)C(=O)c1cn(CC(=O)NCc2ccco2)c2ccccc12 | 29.1 µM [rising, single point] | – |
| O=C(NCc1ccccn1)c1ccccc1-c1ccccc1 | 14.1 µM [rising, single point] | – |
| COC(=O)c1ccc(COc2ccc(F)cc2)o1 | 1.26 µM [rising, full curve, poor fit] | – |
| COc1ccc(N/C=C\C(=O)c2ccc3c(c2)OCO3)cc1 | 0.411 µM [rising, partial curve, poor fit] | – |
| CN(C)c1ccc(/C=C/C(=O)c2ccc(O)cc2)cc1[N+](=O)[O-] | 11.2 µM [falling, partial curve] | – |
| CC(C)NC(=O)c1c2c(nc3ccccc13)CCCC2 | 0.411 µM [rising, full curve, poor fit] | – |
| COc1cccc(C(=O)c2sc(NC(C)C)nc2N)c1 | 6.51 µM [falling, full curve] | 2.31 µM [rising, full curve, poor fit] |
| COc1cc2c(cc1NC(=O)C(C)NCc1ccccc1)oc1ccccc12 (centres undefined) | 3.26 µM [falling, full curve] | – |
